Patent US20090042820A1, “Tubulin Binding Anti Cancer Agents And Prodrugs Thereof” (Threshold Pharmaceuticals, Inc., priority 2004, published 2009)
Some results were stated once for a whole list of compounds, not compound by compound. For at least one compound, name, drawing or mass did not settle the structure. Some ranges recur; such a range may be that of the whole group of compounds.

Experiment: Plasma stability
Format: in vitro ADME, mouse
Settings: summary statement
Description: For an assessment of plasma stability of compounds, commercially available mouse plasma (Bioreclamation, Hicksville, N.Y.) was added to a DMSO solution of a compound, to a concentration of 5 μM. The reaction mixture (50 μl) was withdrawn immediately and after 30 minutes at 37° C., proteins were precipitated with acetonitrile. The clear supernatant was analyzed by reversed phase LC-MS/MS and the amount the compound remaining quantified as shown in table 4.

Row | SMILES | % unchanged in a mouse plasma stability study
1 | COc1cc(C(=O)c2n[nH]c3c(C#CCO)c(OC)ccc23)cc(OC)c1OC [Compound 30] | 80-100%
2 | C#Cc1c(OC)ccc2c(C(=O)c3cc(OC)c(OC)c(OC)c3)n[nH]c12 [Compound 72] | 80-100%
3 | COc1cc(C(=O)c2n[nH]c3c(C#C[C@@H](C)O)c(OC)ccc23)cc(OC)c1OC [Compound 71] | 80-100%
